The target in this experiment is ATG5, wild type, overexpressed (UniProt Q99J83). Briefly: affinity purification with mass spectrometry; mTECs transfected with ATG5 overexpression plasmid; lysate immunoprecipitated with anti-ATG5 antibody; SDS-PAGE, trypsin digest of gel slices, LC-MS/MS.

The chains behind the UniProt entries cited, without tags or fusion partners.
UniProt Q99J83: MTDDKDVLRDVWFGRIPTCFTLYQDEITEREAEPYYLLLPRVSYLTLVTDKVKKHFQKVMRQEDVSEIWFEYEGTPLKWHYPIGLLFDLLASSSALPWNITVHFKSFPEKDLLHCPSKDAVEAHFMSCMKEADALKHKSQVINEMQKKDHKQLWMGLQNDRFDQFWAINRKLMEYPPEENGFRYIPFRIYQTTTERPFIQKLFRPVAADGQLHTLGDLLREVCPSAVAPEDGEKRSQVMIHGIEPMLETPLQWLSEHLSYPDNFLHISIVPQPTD
UniProt Q99K82: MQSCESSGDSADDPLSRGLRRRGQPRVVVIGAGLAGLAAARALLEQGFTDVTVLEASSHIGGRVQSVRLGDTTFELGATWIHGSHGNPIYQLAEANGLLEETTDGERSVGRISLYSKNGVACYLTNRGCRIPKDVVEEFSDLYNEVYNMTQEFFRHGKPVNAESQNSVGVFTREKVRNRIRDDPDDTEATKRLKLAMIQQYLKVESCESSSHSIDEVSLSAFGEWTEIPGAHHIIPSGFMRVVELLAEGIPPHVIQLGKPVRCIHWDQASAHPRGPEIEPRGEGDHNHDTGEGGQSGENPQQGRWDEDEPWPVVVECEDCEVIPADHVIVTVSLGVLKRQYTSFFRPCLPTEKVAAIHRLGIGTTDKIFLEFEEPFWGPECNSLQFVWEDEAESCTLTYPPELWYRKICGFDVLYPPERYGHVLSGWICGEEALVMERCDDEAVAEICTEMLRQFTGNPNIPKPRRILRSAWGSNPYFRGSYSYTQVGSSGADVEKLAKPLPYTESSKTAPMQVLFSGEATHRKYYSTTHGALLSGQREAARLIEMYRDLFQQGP

Our source for the binding values is PMC11304251.

No constants are given. Whether binding was seen depends on the method and setting. In cells and extracts the contact can be indirect. These calls come from enrichment with a bait or labelling near it, and not all partners need be listed.

As for “spermine oxidase (SMOX) (from UniProt Q99K82 1-555) (enzyme)”, the binding entry is on record as “binds”.
